PubChem BioAssay AID1053208 – Peter MacCallum Cancer Centre – 2014
Shown is one part, drawn at random, of about 17,000 deposited reagents. 788 of them (4.7%) count as active. 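Calls rest on z-score classes alone; an extra cut-off of viability at most 70% of control was not applied to them.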 Entries without a mark were called inactive.

Assay: 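Genes whose silencing cuts survival of bone tumour cells only with doxorubicin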 (primary screen)
Cells: mouse osteosarcoma cells, early-passage culture from an engineered mouse model of fibroblastic bone tumour
Knock-down reagent: siRNA pool against mouse genes, 40 nM
Timing: about 120 h (48 h before drug, then 72 h with drug)
Conditions: doxorubicin 100 nM for 72 h, roughly 30-40% inhibitory dose
Read-out: 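Viability read as ATP luminescence after 72 h of 100 nM doxorubicin or none, duplicate wells averaged, scaled to non-targeting siRNA, then expressed as robust z-scores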
Direction: viability z-score with doxorubicin and doxorubicin viability vs non-targeting: higher = more viable cells under doxorubicin; viability z-score without drug: higher = more viable cells with knock-down alone; z-score of drug to no-drug ratio: higher = less drug sensitisation by knock-down
Active means: 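a pool counts as active when its viability z-score with doxorubicin is -2 or below and its z-score without drug lies between -2 and 2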

Target gene	combined z-score class	viability z-score with doxorubicin	viability z-score without drug	z-score of drug to no-drug ratio	doxorubicin viability vs non-targeting
Dnai4 (GeneID 242584)	no change with or without drug	-0.9	-0.51	-0.56	0.86
Lsm14a (GeneID 67070)	no change with or without drug	1.12	0	1.24	1.04
Cited1 (GeneID 12705)	no change with or without drug	-1.12	-1.01	-0.45	0.84
Adss2 (GeneID 11566)	no change with or without drug	-0.22	-1.18	0.79	0.92
Nsa2 (GeneID 59050)	no change with or without drug	0.45	0.34	0.34	0.98
Lemd2 (GeneID 224640)	high cell count without drug only	0.67	2.87	-1.01	1
5330426L24Rik (GeneID 78285)	no change with or without drug	-1.12	0.17	-1.12	0.84
Zfp202 (GeneID 80902)	no change with or without drug	-1.91	-1.18	-1.12	0.77
Pex11b (GeneID 18632)	no change with or without drug	1.57	1.18	0.9	1.08
Tmbim1 (GeneID 69660)	no change with or without drug	-0.34	0.84	-0.79	0.91
Brpf1 (GeneID 78783)	low cell count without drug only	-1.8	-2.19	-0.34	0.78
Exo1 (GeneID 26909)	no change with or without drug	0.67	1.85	-0.45	1
Iigp1 (GeneID 60440)	no change with or without drug	0.34	0.17	0.34	0.97
Il25 (GeneID 140806)	no change with or without drug	0.34	0.84	-0.11	0.97
Zfp385c (GeneID 278304)	no change with or without drug	0.34	1.85	-0.67	0.97
Jarid2 (GeneID 16468)	no change with or without drug	-1.57	-1.52	-0.56	0.8
Pgls (GeneID 66171)	no change with or without drug	-1.69	0.84	-2.14	0.79
Dnajc6 (GeneID 72685)	no change with or without drug	-0.45	0.51	-0.67	0.9
Jmy (GeneID 57748)	no change with or without drug	-1.8	-0.51	-1.46	0.78
Pcdhgb6 (GeneID 93703)	no change with or without drug	-0.45	0.84	-0.9	0.9
Slc4a1ap (GeneID 20534)	no change with or without drug	0.11	0.34	0	0.95
Gpbp1 (GeneID 73274)	low cell count with doxorubicin only (active)	-2.36	0.84	-2.81	0.73
Psmd12 (GeneID 66997)	low cell count with and without drug	-5.51	-6.58	-2.02	0.45
Sec23a (GeneID 20334)	no change with or without drug	0.9	1.01	0.34	1.02
Jakmip1 (GeneID 76071)	low cell count without drug only	-1.35	-2.36	0.34	0.82
Nol4 (GeneID 319211)	low cell count without drug only	0	-2.19	1.91	0.94
Ugt2b5 (GeneID 22238)	no change with or without drug	0	-0.51	0.45	0.94
Tmem167 (GeneID 66074)	no change with or without drug	1.69	0.34	1.57	1.09
Vmn1r24 (GeneID 171191)	no change with or without drug	0	-0.34	0.34	0.94
Glra1 (GeneID 14654)	no change with or without drug	-0.9	-1.52	0.22	0.86
Cdc73 (GeneID 214498)	no change with or without drug	-1.35	-0.84	-0.79	0.82
Faxc (GeneID 76132)	no change with or without drug	0.22	0.51	0	0.96
Cdipt (GeneID 52858)	no change with or without drug	-0.56	-0.51	-0.11	0.89
Rnf187 (GeneID 108660)	no change with or without drug	1.12	0.84	0.67	1.04

Hits, among the entries above:
Target gene	combined z-score class	viability z-score with doxorubicin	viability z-score without drug	z-score of drug to no-drug ratio	doxorubicin viability vs non-targeting
Gpbp1 (GeneID 73274)	low cell count with doxorubicin only (active)	-2.36	0.84	-2.81	0.73
